The test system of the experiment is L1210 leukemia ip in BDF1 mice, survival T/C. The experiment in a line: NCI In Vivo Anticancer Drug Screen. Data for tumor model L1210 Leukemia (intraperitoneal) in B6D2F1 (BDF1) mice. The following applies: T/C endpoint: mean survival time, higher T/C = longer survival.
The mark [1] stands for this setting: dose: 400.0 mg/kg/injection, schedule: Q01DX001 (ip), vehicle: Klucel (hydroxypropylcellulose) (HPC).
Setting [2] is: dose: 200.0 mg/kg/injection, schedule: Q01DX009 (ip), vehicle: saline with Tween-80.
Where [3] appears, read: dose: 100.0 mg/kg/injection, schedule: Q01DX009 (ip), vehicle: Klucel (hydroxypropylcellulose) (HPC).
The mark [4] stands for this setting: dose: 200.0 mg/kg/injection, schedule: Q01DX009 (ip), vehicle: Klucel (hydroxypropylcellulose) (HPC).
Where [5] appears, read: dose: 400.0 mg/kg/injection, schedule: Q04DX003 (ip), vehicle: Klucel (hydroxypropylcellulose) (HPC).
Where [6] appears, read: dose: 100.0 mg/kg/injection, schedule: Q01DX001 (ip), vehicle: carboxymethylcellulose (CMC).
The mark [7] stands for this setting: dose: 200.0 mg/kg/injection, schedule: Q01DX001 (ip), vehicle: carboxymethylcellulose (CMC).
Where [8] appears, read: dose: 400.0 mg/kg/injection, schedule: Q01DX001 (ip), vehicle: carboxymethylcellulose (CMC).
[9] abbreviates: dose: 400.0 mg/kg/injection, schedule: Q01DX009 (ip), vehicle: Klucel (hydroxypropylcellulose) (HPC).
The mark [10] stands for this setting: dose: 400.0 mg/kg/injection, schedule: Q01DX009 (ip), vehicle: saline with Tween-80.
The mark [11] stands for this setting: dose: 100.0 mg/kg/injection, schedule: Q01DX009 (ip), vehicle: saline with Tween-80.

Molecules are shown by their SMILES. The list is a part of this screen's results and no random one: it is rich in T/C values a quarter to a half above the control, in often repeated tests (any T/C) and in doses without a T/C. Further doses and runs are listed elsewhere. T/C is the treated group as % of the vehicle group. Some doses have a count of surviving animals in place of a T/C: the source holds a T/C of zero for them, seemingly a mark for toxic or unscored doses. Some doses without a T/C left all or most animals alive at the check, yet need not have been tolerated: the source hardly ever lists a survival T/C far under the control, and the zero likely stands for such cases as well. Counts of survivors are from the toxicity check (mostly the fifth day) where no day follows; animals may have died later. Schedules are NCI's codes, taken here to give the interval after Q, in days (D) or hours (H), and the number of doses after X. Some schedules carry Z or #; the key to these is not given. Some entries were tested several times; the values are given in rising order. Where survival is the endpoint, this PubChem deposit counts one and a half times the control or more as active, and values a quarter to a half above the control carry no call in these data; other NCI protocols may use other cut-offs. Some T/C values carry the count of animals alive at the toxicity check (mostly the fifth day); where none is given, no animal had died by that day. Counts like (3×) give the number of equal values in this list.

Consider `O=C(OCCn1c(-c2ccccn2)nc2ccccc21)C(O)(c1ccccc1)c1ccccc1`, for which, under setting [1], the survivor count is recorded as 0 of 6.
As to `COC(C)C(Br)C(=O)O` (stereo unspecified), the survivor count (dose: 400.0 mg/kg/injection, schedule: Q04DX003 (ip), vehicle: saline) is given as 4 of 6.
On to `CN1CCC(O)(C#N)CC1`, for which, under “dose: 30.0 mg/kg/injection, schedule: Q01DX001 (ip), vehicle: saline”, the survivor count was 1 of 6.
In the case of `COc1ccccc1C1CCCC2C(Oc3ccc([N+](=O)[O-])cc3)OC12` (stereo unspecified), under setting [2], the survivor count was 3 of 3.
`Clc1c(Cl)c(CBr)c(Cl)c(CBr)c1Cl`: the survivor count runs as follows: under setting [3], 2 of 6; under setting [4], 0 of 6; under setting [5], 0 of 6.
For `O=C(CBr)Nc1cccc(S(=O)(=O)F)c1`, the survivor count runs as follows: (dose: 20.0 mg/kg/injection, schedule: Q01DX001 (ip), vehicle: carboxymethylcellulose (CMC)) 3 of 6; (dose: 40.0 mg/kg/injection, schedule: Q01DX001 (ip), vehicle: carboxymethylcellulose (CMC)) 3 of 6; (dose: 75.0 mg/kg/injection, schedule: Q01DX001 (ip), vehicle: carboxymethylcellulose (CMC)) 0 of 6; (dose: 150.0 mg/kg/injection, schedule: Q01DX001 (ip), vehicle: carboxymethylcellulose (CMC)) 0 of 6; (dose: 300.0 mg/kg/injection, schedule: Q01DX001 (ip), vehicle: carboxymethylcellulose (CMC)) 0 of 6.
For `O=c1ccc(=O)c2c(=O)c3ccccc3c(=O)c1=2`, the survivor count under setting [4] was 3 of 6 and the survivor count under setting [5] is 3 of 6.
On to `CC(=O)Nc1ccc(Cc2[nH]c(=O)[nH]c(=O)c2Br)cc1`, for which, under setting [1], the survivor count is recorded as 3 of 3.
On to `CC1(C)c2ccccc2N(CCCN2CCCCC2)c2ccccc21`, for which, where the note is “dose: 400.0 mg/kg/injection, schedule: Q01DX001 (ip), vehicle: water”, the survivor count is 0 of 4.
For the compound `CN(C)C(=S)S/C=C\C(=O)O`, the T/C (dose: 100.0 mg/kg/injection, schedule: Q04DX002 (ip), vehicle: Klucel (hydroxypropylcellulose) (HPC)) is 125 % of control.
In the case of `O=NC1C(Cl)C2CC1C1C(Br)C(Br)CC21` (stereo unspecified), the survivor count (dose: 225.0 mg/kg/injection, schedule: Q01DX009 (ip), vehicle: saline) is given as 1 of 6.
In the case of `c1ccc2cnccc2c1`, the survivor count (dose: 400.0 mg/kg/injection, schedule: Q01DX009 (ip), vehicle: saline) is given as 0 of 6.
Turning to `CO[C@@H]1CCCCCC[C@H]1[Hg][Cl]`, the survivor count (dose: 50.0 mg/kg/injection, schedule: Q01DX001 (ip), vehicle: carboxymethylcellulose (CMC)) is on record as 0 of 4; the survivor count (dose: 80.0 mg/kg/injection, schedule: Q01DX001 (ip), vehicle: carboxymethylcellulose (CMC)) is 0 of 4; the survivor count under setting [6] was 0 of 4; the survivor count under setting [7] is reported as 0 of 4; the survivor count under setting [8] was 0 of 4.
With `CCCCCCCCCCCCNCCCCCCCCCCCC`, the survivor count was 3 of 6 (dose: 18.0 mg/kg/injection, schedule: Q01DX009 (ip), vehicle: saline); 1 of 6 (dose: 25.0 mg/kg/injection, schedule: Q04DX003 (ip), vehicle: acetone); 1 of 6 (dose: 28.0 mg/kg/injection, schedule: Q01DX009 (ip), vehicle: saline); 0 of 6 (dose: 40.0 mg/kg/injection, schedule: Q01DX009 (ip), vehicle: saline); 0 of 6 (dose: 50.0 mg/kg/injection, schedule: Q01DX001 (ip), vehicle: saline); 2 of 6 (dose: 100.0 mg/kg/injection, schedule: Q01DX001 (ip), vehicle: acetone). The survivor count by setting is: (dose: 200.0 mg/kg/injection, schedule: Q01DX001 (ip), vehicle: acetone) 2 of 6; (dose: 400.0 mg/kg/injection, schedule: Q01DX001 (ip), vehicle: acetone) 1 of 6.
As for `S=C(S)Nc1cccc2ccccc12`, the survivor count is, setting by setting: (dose: 100.0 mg/kg/injection, schedule: Q04DX003 (ip), vehicle: Klucel (hydroxypropylcellulose) (HPC)) 4 of 6; (dose: 200.0 mg/kg/injection, schedule: Q04DX003 (ip), vehicle: Klucel (hydroxypropylcellulose) (HPC)) 2 of 6; under setting [5], 4 of 6.
In the case of `Cc1noc2c1ncc[n+]2[O-]`, the survivor count was 0 of 6 (dose: 100.0 mg/kg/injection, schedule: Q04DX003 (ip), vehicle: saline with Tween-80); 0 of 6 (dose: 200.0 mg/kg/injection, schedule: Q04DX003 (ip), vehicle: saline with Tween-80); 0 of 6 (dose: 400.0 mg/kg/injection, schedule: Q04DX003 (ip), vehicle: saline with Tween-80).
Regarding `COc1ccccc1-n1c(O)c(N=Nc2ccc(Br)cc2)c(=O)n(-c2ccc(Cl)cc2)c1=S`, the survivor count under setting [1] is reported as 2 of 6.
As to `COc1ccc([N+](=O)[O-])cc1NC(=O)Nc1ccccc1C(F)(F)F`, the survivor count is given as 6 of 6 under setting [4] and 6 of 6 under setting [9].
For `O=C(NCc1ccc(Cl)c(Cl)c1)Nc1ccccc1F`, the survivor count is, setting by setting: under setting [3], 6 of 6; under setting [4], 6 of 6; under setting [9], 6 of 6.
Turning to `Cc1[o+]c(C)c2c(c1C)-c1ccccc1C2=O`, the survivor count under setting [10] is 2 of 6.
As for `CC(=O)OC1C(C(=O)O)CC(C(=O)O)C1OC(C)=O` (stereo unspecified), the T/C (dose: 200.0 mg/kg/injection, schedule: Q01DX001 (ip), vehicle: saline) is 142 % of control.
`O=C(CBr)NCC(S)c1ccc(Cl)cc1` (stereo unspecified): the survivor count under setting [4] is reported as 5 of 6 and the survivor count under setting [9] is on record as 3 of 6.
As to `CC[N-]c1nncs1.CC[N-]c1nncs1.CC[N-]c1nncs1.CC[N-]c1nncs1.[Cl][Rh][Cl]`, the survivor count (dose: 200.0 mg/kg/injection, schedule: Q04DX003 (ip), vehicle: distilled water + Tween-80) was 1 of 6.
As to `Cc1n[nH]c(C)c1C(C)C`, where the note is “dose: 400.0 mg/kg/injection, schedule: Q01DX001 (ip), vehicle: saline”, the survivor count is recorded as 1 of 4.
With `C=CCCC(=O)OC(C)(C)C`, the survivor count (dose: 400.0 mg/kg/injection, schedule: Q01DX009 (ip), vehicle: water) was 0 of 6.
In the case of `CC(C(=O)O)c1ccccc1` (stereo unspecified), the survivor count under setting [11] is 2 of 3 and the survivor count under setting [2] was 3 of 3.
On to `O=C1O[C@@H]2[C@@H](I)[C@@H]3C[C@@H]2[C@@H]1C3`, for which the survivor count under setting [6] was 1 of 4, the survivor count under setting [7] was 1 of 4 and the survivor count under setting [8] was 1 of 4.
`FC(F)(F)C(F)(OCCC[Si](Cl)(Cl)Cl)C(F)(F)F`: the survivor count runs as follows: (dose: 75.0 mg/kg/injection, schedule: Q01DX001 (ip), vehicle: saline) 0 of 6; (dose: 150.0 mg/kg/injection, schedule: Q01DX001 (ip), vehicle: saline) 0 of 6; (dose: 300.0 mg/kg/injection, schedule: Q01DX001 (ip), vehicle: saline) 0 of 6.
As to `O=C(Nc1ccc(S(=O)(=O)F)cc1)Oc1ccc([N+](=O)[O-])cc1`, under setting [11], the T/C was 89 (2×), 91, 93 % of control [4 of 6 alive]. Besides, the survivor count runs as follows: under setting [2], 3 of 6; under setting [10], 0 of 3 and 5 of 6.
For the compound `C=CCC(=O)O`, for the setting “dose: 55.0 mg/kg/injection, schedule: Q01DX Z (ip), vehicle: saline”, the survivor count is reported as 6 of 6.
Consider `CCc1cccc(CC)c1NC(N)=S`, for which the T/C (dose: 100.0 mg/kg/injection, schedule: Q04DX002 (ip), vehicle: saline with Tween-80) is 128 % of control [2 of 3 alive]. The survivor count was 0 of 3 (dose: 200.0 mg/kg/injection, schedule: Q04DX002 (ip), vehicle: saline with Tween-80) and 0 of 3 (dose: 400.0 mg/kg/injection, schedule: Q04DX002 (ip), vehicle: saline with Tween-80).

The values are drawn from PubChem BioAssay AID248 (DTP/NCI, 2004).
